Measurements from publication PMC10774338.
Substitutions are numbered along the chain they refer to. Results are given in words; binding and its absence hold for the method and conditions named. In cells and extracts the contact can be indirect. Some results given as binding are weak or reduced against the parent protein; the word gives no strength. Sequences can lack the tags named with a protein.

The chains behind the UniProt entries cited, without tags or fusion partners.
UniProt P62491: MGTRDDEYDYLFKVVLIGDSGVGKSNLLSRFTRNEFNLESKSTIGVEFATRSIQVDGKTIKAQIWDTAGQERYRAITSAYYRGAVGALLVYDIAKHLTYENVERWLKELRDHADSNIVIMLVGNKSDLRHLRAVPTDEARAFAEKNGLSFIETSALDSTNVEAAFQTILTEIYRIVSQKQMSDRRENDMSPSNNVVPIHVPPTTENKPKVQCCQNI

Experiments:
[1] = target: T1, Myc-tagged WDR44 D669N (human) (UniProt Q5JSH3); experiment: co-IP; GFP-RAB11A and Myc-WDR44 wild-type or variant coexpressed in 293T for 48 h; Myc-tagged proteins immunoprecipitated from lysate (150 mM NaCl, 20 mM Tris HCl pH 8.0, 10% glycerol, 1% Triton X-100; Protein G Sepharose), blots probed for GFP and Myc; also done after 3 h and 24 h serum starvation (wild-type, G782C, S764F)
T1 sequence: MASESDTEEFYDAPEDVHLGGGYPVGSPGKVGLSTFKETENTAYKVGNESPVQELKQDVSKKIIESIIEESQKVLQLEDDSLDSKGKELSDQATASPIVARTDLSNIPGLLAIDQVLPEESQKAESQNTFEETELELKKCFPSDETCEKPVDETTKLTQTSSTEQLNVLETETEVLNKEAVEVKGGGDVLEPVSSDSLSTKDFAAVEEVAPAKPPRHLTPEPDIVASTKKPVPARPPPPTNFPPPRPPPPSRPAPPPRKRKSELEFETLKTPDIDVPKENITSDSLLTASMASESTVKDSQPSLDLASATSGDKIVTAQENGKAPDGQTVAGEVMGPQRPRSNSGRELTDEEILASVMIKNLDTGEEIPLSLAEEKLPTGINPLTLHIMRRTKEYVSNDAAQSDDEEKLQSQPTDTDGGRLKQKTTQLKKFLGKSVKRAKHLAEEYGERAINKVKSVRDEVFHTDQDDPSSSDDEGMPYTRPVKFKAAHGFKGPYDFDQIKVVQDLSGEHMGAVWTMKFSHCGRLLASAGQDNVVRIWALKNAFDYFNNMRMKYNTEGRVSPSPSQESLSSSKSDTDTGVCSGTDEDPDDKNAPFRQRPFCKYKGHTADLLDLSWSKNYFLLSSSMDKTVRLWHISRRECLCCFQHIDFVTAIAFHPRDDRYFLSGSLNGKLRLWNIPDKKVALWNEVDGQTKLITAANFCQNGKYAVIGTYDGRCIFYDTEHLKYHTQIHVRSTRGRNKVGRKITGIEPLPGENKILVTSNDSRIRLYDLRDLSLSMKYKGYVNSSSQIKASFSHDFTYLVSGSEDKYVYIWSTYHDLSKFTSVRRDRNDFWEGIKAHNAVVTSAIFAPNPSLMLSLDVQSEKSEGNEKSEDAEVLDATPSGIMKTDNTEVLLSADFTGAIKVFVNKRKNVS

[2] = target: T2, Myc-tagged WDR44 D648G (human) (UniProt Q5JSH3); experiment: as above
T2 sequence: T1 sequence with D648G, N669D

GFP-tagged RAB11A (from UniProt P62491 1-216)
binding [1]: binds | binding [2]: binds
